Source: the supplement of paper PMC12067093, “Discovery and optimisation of a covalent ligand for TRIM25 and its application to targeted protein ubiquitination” (Chemical Science, 2025)
Some of the results follow.

By UniProt entry, the sequences of proteins in these tests, tags left out. Where a name states a change or a piece, a line headed by the entry shows the natural chain unless it says otherwise.
UniProt Q16513: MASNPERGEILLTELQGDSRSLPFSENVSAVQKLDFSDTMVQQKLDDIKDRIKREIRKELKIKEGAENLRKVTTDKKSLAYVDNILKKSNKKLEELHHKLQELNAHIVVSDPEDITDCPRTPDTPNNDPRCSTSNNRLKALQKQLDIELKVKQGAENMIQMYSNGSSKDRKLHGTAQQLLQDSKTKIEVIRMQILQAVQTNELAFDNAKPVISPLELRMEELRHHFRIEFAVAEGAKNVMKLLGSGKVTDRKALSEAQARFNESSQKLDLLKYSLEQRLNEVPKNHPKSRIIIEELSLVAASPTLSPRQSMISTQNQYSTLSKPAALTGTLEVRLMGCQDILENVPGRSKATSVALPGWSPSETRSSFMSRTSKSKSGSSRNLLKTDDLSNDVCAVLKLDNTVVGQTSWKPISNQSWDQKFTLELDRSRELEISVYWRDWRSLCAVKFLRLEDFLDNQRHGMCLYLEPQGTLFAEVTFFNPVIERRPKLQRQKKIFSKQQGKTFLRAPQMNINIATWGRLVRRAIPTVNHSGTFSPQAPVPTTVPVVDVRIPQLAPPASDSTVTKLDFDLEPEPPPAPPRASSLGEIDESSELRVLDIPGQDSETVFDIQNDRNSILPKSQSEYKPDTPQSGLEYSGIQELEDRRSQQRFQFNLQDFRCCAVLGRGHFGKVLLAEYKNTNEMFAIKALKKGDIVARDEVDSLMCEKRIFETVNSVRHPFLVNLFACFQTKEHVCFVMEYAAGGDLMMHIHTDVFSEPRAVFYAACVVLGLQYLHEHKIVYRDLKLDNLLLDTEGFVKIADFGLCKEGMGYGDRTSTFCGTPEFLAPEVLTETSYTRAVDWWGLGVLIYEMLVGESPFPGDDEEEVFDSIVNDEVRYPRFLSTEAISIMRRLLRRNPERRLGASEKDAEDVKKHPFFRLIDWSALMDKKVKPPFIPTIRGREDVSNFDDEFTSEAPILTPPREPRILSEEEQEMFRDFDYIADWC

Compound: CC1Cc2ccccc2N1C(=O)C1CCCN(C1)C(=O)CCl (mixture of isomers) [TRIM25 ligand 11 (diastereomer mixture)]
Assay: probe-labelled cysteine peptide fold change vs DMSO (competition) (log2 fold change); higher = less target engagement (more negative = stronger competition)
Conditions: THP-1, incubation time: 4 h
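Note: competitive chemoproteomic profiling in live THP-1 cells with an iodoacetamide desthiobiotin (IA-DTB) probe, comparing probe-labelled peptide intensities in compound-treated cells against DMSO-treated controls.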

In the case of “PKN2_Q16513_118_LQELNAHIVVSDPEDITDCPR (UniProt Q16513)”, the “probe-labelled cysteine peptide fold change” value (10 µM) is reported as 0.231 and the “probe-labelled cysteine peptide fold change” value (50 µM) is reported as -0.221.
